Test results as given in the supplement of paper PMC12823440, “Inhibitors supercharge kinase turnover through native proteolytic circuits” (Nature, 2025).
Counter-ions that a name gives are not always drawn. The list shows a part of the results. The calls rarely recur for the same compound in another form.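 Kinases were expressed as nanoluciferase fusions in K562 cells and luminescence was read every 4 h between 2 and 18 h as percent of control, DMSO set to 100% and a positive control to 0%. A time point counts as decreased when the signal drops significantly (2 sigma). The hit call is the authors' own, does not follow from the count of time points alone, and its rule is not shown.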

Chains of the proteins cited; added tags and fusions are not shown. Lines headed by an entry give the natural chain unless they say otherwise; changes in a name come on top.
UniProt Q15208: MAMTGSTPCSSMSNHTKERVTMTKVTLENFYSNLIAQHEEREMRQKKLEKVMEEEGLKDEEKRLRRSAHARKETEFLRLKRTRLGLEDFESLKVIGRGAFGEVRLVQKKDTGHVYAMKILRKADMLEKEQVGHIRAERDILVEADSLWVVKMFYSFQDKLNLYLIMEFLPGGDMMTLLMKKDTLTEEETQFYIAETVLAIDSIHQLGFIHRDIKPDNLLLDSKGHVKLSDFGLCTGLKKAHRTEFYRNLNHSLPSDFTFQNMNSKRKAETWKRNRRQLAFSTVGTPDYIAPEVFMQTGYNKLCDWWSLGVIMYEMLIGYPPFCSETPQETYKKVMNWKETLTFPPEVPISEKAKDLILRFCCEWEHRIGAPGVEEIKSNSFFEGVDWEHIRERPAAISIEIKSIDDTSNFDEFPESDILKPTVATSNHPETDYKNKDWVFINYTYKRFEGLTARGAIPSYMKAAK
UniProt P42680: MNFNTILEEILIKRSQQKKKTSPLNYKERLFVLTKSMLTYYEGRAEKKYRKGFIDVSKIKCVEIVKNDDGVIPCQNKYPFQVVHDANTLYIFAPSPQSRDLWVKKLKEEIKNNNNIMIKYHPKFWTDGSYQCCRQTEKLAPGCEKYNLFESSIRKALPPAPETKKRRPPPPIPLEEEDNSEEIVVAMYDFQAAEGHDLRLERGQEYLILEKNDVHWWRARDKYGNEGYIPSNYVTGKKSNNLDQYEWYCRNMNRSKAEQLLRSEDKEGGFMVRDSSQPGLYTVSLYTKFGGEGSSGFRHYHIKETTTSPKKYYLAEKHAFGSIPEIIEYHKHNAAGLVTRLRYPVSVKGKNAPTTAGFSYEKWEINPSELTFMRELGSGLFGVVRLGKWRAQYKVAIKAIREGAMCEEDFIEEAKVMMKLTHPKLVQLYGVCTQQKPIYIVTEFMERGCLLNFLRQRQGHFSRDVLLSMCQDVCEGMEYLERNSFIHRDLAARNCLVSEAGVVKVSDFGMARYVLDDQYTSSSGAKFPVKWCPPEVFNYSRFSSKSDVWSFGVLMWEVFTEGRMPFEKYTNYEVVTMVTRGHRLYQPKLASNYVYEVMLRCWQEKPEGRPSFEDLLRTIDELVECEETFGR
UniProt P29597: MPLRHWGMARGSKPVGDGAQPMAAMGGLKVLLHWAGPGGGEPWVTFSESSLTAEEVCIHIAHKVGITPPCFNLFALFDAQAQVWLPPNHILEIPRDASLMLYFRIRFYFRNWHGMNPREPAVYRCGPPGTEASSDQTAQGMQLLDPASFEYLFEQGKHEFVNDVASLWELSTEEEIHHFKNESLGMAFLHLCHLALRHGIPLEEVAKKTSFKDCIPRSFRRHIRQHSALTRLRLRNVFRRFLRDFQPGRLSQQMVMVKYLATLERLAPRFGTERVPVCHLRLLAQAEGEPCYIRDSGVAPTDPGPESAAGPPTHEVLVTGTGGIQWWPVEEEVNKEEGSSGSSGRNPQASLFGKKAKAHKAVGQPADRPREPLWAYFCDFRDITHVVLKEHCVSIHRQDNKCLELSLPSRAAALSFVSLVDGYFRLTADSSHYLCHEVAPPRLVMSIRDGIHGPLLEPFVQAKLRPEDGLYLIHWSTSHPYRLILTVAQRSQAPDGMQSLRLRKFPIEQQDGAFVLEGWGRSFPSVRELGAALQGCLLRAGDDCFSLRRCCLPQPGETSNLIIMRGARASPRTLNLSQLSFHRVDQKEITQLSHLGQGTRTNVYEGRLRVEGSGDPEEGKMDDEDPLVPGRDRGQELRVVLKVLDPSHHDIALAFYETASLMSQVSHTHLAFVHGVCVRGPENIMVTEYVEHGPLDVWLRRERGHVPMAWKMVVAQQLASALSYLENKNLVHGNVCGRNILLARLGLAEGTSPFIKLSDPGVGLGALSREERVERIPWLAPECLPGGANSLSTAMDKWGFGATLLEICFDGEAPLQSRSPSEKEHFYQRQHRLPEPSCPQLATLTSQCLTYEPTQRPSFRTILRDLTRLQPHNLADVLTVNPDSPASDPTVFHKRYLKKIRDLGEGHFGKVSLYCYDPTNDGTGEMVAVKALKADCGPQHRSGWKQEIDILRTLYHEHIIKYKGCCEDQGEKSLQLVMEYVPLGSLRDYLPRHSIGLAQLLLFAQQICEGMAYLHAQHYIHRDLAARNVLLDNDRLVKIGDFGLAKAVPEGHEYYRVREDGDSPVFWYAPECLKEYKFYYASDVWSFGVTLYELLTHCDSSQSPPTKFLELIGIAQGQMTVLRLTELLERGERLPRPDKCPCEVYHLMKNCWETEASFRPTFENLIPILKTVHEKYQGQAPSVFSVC
UniProt Q6PHR2: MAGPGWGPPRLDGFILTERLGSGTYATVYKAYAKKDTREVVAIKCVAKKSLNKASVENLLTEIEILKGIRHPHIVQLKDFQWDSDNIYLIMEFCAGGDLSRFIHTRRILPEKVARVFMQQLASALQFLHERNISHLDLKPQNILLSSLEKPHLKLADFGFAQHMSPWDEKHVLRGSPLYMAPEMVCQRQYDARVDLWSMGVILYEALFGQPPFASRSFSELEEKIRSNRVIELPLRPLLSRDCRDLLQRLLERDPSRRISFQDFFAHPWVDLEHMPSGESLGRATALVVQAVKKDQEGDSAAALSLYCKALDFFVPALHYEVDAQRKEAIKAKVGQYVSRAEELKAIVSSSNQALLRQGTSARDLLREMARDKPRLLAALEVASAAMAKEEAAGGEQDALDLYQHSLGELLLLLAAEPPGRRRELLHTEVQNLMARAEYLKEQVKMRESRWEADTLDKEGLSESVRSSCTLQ
UniProt P07947, whole entry, looked up: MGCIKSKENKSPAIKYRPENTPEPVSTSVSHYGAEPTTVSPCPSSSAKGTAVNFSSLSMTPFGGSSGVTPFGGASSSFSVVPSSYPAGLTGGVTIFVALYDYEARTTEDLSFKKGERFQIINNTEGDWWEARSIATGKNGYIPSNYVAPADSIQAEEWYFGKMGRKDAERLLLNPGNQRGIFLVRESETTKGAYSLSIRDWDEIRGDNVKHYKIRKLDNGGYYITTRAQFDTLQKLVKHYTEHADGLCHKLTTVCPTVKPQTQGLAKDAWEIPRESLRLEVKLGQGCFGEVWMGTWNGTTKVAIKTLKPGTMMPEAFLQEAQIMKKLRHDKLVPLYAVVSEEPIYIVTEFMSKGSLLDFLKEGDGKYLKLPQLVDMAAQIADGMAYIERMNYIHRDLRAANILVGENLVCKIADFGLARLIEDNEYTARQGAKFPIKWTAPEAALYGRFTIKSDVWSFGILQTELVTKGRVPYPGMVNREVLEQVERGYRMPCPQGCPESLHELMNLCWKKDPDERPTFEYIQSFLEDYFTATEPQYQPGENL
UniProt P43403: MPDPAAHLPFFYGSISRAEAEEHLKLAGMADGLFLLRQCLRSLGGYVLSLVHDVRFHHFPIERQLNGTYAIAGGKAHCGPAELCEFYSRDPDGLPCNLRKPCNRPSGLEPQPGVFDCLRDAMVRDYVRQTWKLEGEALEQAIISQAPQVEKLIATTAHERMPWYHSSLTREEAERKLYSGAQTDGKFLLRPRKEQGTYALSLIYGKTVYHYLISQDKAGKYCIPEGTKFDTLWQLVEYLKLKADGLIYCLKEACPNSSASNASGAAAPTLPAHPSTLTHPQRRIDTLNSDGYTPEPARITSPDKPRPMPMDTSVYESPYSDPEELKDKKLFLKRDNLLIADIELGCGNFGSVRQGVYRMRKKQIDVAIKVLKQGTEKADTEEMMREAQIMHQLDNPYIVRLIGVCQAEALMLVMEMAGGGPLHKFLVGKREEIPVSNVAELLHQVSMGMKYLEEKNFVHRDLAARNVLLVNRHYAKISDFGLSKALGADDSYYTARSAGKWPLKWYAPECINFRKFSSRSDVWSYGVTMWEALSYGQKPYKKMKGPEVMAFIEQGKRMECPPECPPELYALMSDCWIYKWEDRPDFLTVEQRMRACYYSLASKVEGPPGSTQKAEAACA
UniProt P11802: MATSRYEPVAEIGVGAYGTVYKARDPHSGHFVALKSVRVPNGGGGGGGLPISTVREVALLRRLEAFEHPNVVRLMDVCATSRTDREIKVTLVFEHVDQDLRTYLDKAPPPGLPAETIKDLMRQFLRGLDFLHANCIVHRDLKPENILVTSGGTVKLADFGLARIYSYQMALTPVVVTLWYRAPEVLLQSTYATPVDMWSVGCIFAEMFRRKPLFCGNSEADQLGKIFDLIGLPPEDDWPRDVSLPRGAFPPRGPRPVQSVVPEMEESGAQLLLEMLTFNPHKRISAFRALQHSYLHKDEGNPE
UniProt P50613: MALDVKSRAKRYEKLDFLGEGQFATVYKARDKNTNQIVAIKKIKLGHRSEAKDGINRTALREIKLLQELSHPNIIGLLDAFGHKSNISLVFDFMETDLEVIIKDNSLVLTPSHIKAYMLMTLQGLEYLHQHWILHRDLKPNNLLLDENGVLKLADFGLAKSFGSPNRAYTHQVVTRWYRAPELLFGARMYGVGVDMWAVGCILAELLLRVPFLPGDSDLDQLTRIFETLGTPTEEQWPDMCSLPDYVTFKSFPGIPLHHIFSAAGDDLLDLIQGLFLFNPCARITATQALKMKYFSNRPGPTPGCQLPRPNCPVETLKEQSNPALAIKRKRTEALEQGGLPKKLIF
UniProt P50750, whole entry: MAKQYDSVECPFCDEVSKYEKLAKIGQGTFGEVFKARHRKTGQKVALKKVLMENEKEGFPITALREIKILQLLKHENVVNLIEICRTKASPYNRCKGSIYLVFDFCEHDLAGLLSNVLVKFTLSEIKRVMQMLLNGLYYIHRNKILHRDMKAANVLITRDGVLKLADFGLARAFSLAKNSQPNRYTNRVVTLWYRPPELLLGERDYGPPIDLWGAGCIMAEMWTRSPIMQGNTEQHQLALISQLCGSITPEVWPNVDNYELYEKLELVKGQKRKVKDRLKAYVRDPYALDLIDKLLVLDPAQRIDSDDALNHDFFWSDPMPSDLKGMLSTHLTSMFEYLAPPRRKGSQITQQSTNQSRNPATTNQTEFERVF

Experiments:
Conditions in all cases: K562, 2-18 h
[1] = molecular target: STK38 (UniProt Q15208); experiment: kinase-Nluc reporter destabilization hit call (1 = scored as downregulated) (binary); higher = compound decreases kinase abundance
[2] = molecular target: SYK (UniProt P43405); experiment: as above
[3] = molecular target: TEC (UniProt P42680); experiment: as above
[4] = molecular target: TYK2 (UniProt P29597); experiment: as above
[5] = molecular target: ULK3 (UniProt Q6PHR2); experiment: as above
[6] = molecular target: YES1 (UniProt P07947); experiment: as above
[7] = molecular target: ZAK (UniProt Q9NYL2); experiment: as above
[8] = molecular target: ZAP70 (UniProt P43403); experiment: as above
[9] = molecular target: CDK4 (UniProt P11802); experiment: number of time points (of 4; 2 h point missing) at which kinase-Nluc abundance scored as decreased, DMSO-normalised (count); higher = more persistent destabilization
[10] = molecular target: CDK7 (UniProt P50613); experiment: as above
[11] = molecular target: CDK9 (UniProt P50750); experiment: as above

CCCCCCCCc1ccc(CCC(N)(CO)CO)cc1 [Fingolimod (hydrochloride)]
inactive: kinase-Nluc reporter destabilization hit call ([1]; 2.5 µM) 0 | kinase-Nluc reporter destabilization hit call ([2]; 2.5 µM) 0 | kinase-Nluc reporter destabilization hit call ([3]; 2.5 µM) 0 | kinase-Nluc reporter destabilization hit call ([4]; 2.5 µM) 0 | kinase-Nluc reporter destabilization hit call ([5]; 2.5 µM) 0 | kinase-Nluc reporter destabilization hit call ([6]; 2.5 µM) 0 | kinase-Nluc reporter destabilization hit call ([7]; 2.5 µM) 0 | kinase-Nluc reporter destabilization hit call ([8]; 2.5 µM) 0
0: number of time points ([9]; 2.5 µM) | number of time points ([10]; 2.5 µM) | number of time points ([11]; 2.5 µM)

CNC(=O)c1ccc(Nc2ncc(C(F)(F)F)c(NCc3nccnc3N(C)S(C)(=O)=O)n2)cc1 [Defactinib]
0: number of time points ([9]; 10 µM) | number of time points ([10]; 10 µM) | number of time points ([11]; 10 µM)
inactive: kinase-Nluc reporter destabilization hit call ([1]; 10 µM) 0 | kinase-Nluc reporter destabilization hit call ([2]; 10 µM) 0 | kinase-Nluc reporter destabilization hit call ([3]; 10 µM) 0 | kinase-Nluc reporter destabilization hit call ([4]; 10 µM) 0 | kinase-Nluc reporter destabilization hit call ([5]; 10 µM) 0 | kinase-Nluc reporter destabilization hit call ([6]; 10 µM) 0 | kinase-Nluc reporter destabilization hit call ([7]; 10 µM) 0 | kinase-Nluc reporter destabilization hit call ([8]; 10 µM) 0

Cn1cc(-c2cnc3ccc4ccc(CS(=O)(=O)NCc5ccccn5)cc4c(=O)c3c2)cn1 [MK-8033 (hydrochloride)]
0: number of time points ([9]; 10 µM) | number of time points ([10]; 10 µM) | number of time points ([11]; 10 µM)
inactive: kinase-Nluc reporter destabilization hit call ([1]; 10 µM) 0 | kinase-Nluc reporter destabilization hit call ([2]; 10 µM) 0 | kinase-Nluc reporter destabilization hit call ([3]; 10 µM) 0 | kinase-Nluc reporter destabilization hit call ([4]; 10 µM) 0 | kinase-Nluc reporter destabilization hit call ([5]; 10 µM) 0 | kinase-Nluc reporter destabilization hit call ([6]; 10 µM) 0 | kinase-Nluc reporter destabilization hit call ([7]; 10 µM) 0 | kinase-Nluc reporter destabilization hit call ([8]; 10 µM) 0

CN(C)C(=O)c1cc2cnc(Nc3ccc(N4CCNCC4)cn3)nc2n1C1CCCC1 [Ribociclib succinate]
inactive: kinase-Nluc reporter destabilization hit call ([1]; 10 µM) 0 | kinase-Nluc reporter destabilization hit call ([2]; 10 µM) 0 | kinase-Nluc reporter destabilization hit call ([3]; 10 µM) 0 | kinase-Nluc reporter destabilization hit call ([4]; 10 µM) 0 | kinase-Nluc reporter destabilization hit call ([5]; 10 µM) 0 | kinase-Nluc reporter destabilization hit call ([6]; 10 µM) 0 | kinase-Nluc reporter destabilization hit call ([7]; 10 µM) 0 | kinase-Nluc reporter destabilization hit call ([8]; 10 µM) 0
0: number of time points ([9]; 10 µM) | number of time points ([10]; 10 µM) | number of time points ([11]; 10 µM)

COCCOc1cc(F)c2c(Nc3ccc(NC(=O)Cn4cc(C(C)C)nn4)cc3)ncnc2c1 [AZD3229 Tosylate]
inactive: kinase-Nluc reporter destabilization hit call ([1]; 10 µM) 0 | kinase-Nluc reporter destabilization hit call ([2]; 10 µM) 0 | kinase-Nluc reporter destabilization hit call ([3]; 10 µM) 0 | kinase-Nluc reporter destabilization hit call ([4]; 10 µM) 0 | kinase-Nluc reporter destabilization hit call ([5]; 10 µM) 0 | kinase-Nluc reporter destabilization hit call ([6]; 10 µM) 0 | kinase-Nluc reporter destabilization hit call ([7]; 10 µM) 0 | kinase-Nluc reporter destabilization hit call ([8]; 10 µM) 0
0: number of time points ([9]; 10 µM) | number of time points ([10]; 10 µM) | number of time points ([11]; 10 µM)

2 successive entries from above, for reference:
CCCCCCCCc1ccc(CCC(N)(CO)CO)cc1 [Fingolimod (hydrochloride)]
inactive: kinase-Nluc reporter destabilization hit call ([1]; 2.5 µM) 0 | kinase-Nluc reporter destabilization hit call ([2]; 2.5 µM) 0 | kinase-Nluc reporter destabilization hit call ([3]; 2.5 µM) 0 | kinase-Nluc reporter destabilization hit call ([4]; 2.5 µM) 0 | kinase-Nluc reporter destabilization hit call ([5]; 2.5 µM) 0 | kinase-Nluc reporter destabilization hit call ([6]; 2.5 µM) 0 | kinase-Nluc reporter destabilization hit call ([7]; 2.5 µM) 0 | kinase-Nluc reporter destabilization hit call ([8]; 2.5 µM) 0
0: number of time points ([9]; 2.5 µM) | number of time points ([10]; 2.5 µM) | number of time points ([11]; 2.5 µM)

CNC(=O)c1ccc(Nc2ncc(C(F)(F)F)c(NCc3nccnc3N(C)S(C)(=O)=O)n2)cc1 [Defactinib]
0: number of time points ([9]; 10 µM) | number of time points ([10]; 10 µM) | number of time points ([11]; 10 µM)
inactive: kinase-Nluc reporter destabilization hit call ([1]; 10 µM) 0 | kinase-Nluc reporter destabilization hit call ([2]; 10 µM) 0 | kinase-Nluc reporter destabilization hit call ([3]; 10 µM) 0 | kinase-Nluc reporter destabilization hit call ([4]; 10 µM) 0 | kinase-Nluc reporter destabilization hit call ([5]; 10 µM) 0 | kinase-Nluc reporter destabilization hit call ([6]; 10 µM) 0 | kinase-Nluc reporter destabilization hit call ([7]; 10 µM) 0 | kinase-Nluc reporter destabilization hit call ([8]; 10 µM) 0

Next part:

CNc1ncc2cc(-c3ccc(-c4cccc(C)n4)cc3Cl)c(=O)n(C[C@H]3OC[C@H](N)CO3)c2n1
0: number of time points ([9]; 10 µM) | number of time points ([10]; 10 µM) | number of time points ([11]; 10 µM)
inactive: kinase-Nluc reporter destabilization hit call ([1]; 10 µM) 0 | kinase-Nluc reporter destabilization hit call ([2]; 10 µM) 0 | kinase-Nluc reporter destabilization hit call ([3]; 10 µM) 0 | kinase-Nluc reporter destabilization hit call ([4]; 10 µM) 0 | kinase-Nluc reporter destabilization hit call ([5]; 10 µM) 0 | kinase-Nluc reporter destabilization hit call ([6]; 10 µM) 0 | kinase-Nluc reporter destabilization hit call ([7]; 10 µM) 0 | kinase-Nluc reporter destabilization hit call ([8]; 10 µM) 0

CN(C)C/C=C/C(=O)Nc1cc2c(Nc3ccc(F)c(Cl)c3)ncnc2cc1O[C@H]1CCOC1 [Afatinib]
inactive: kinase-Nluc reporter destabilization hit call ([1]; 10 µM) 0 | kinase-Nluc reporter destabilization hit call ([2]; 10 µM) 0 | kinase-Nluc reporter destabilization hit call ([3]; 10 µM) 0 | kinase-Nluc reporter destabilization hit call ([4]; 10 µM) 0 | kinase-Nluc reporter destabilization hit call ([5]; 10 µM) 0 | kinase-Nluc reporter destabilization hit call ([6]; 10 µM) 0 | kinase-Nluc reporter destabilization hit call ([7]; 10 µM) 0 | kinase-Nluc reporter destabilization hit call ([8]; 10 µM) 0
0: number of time points ([9]; 10 µM) | number of time points ([10]; 10 µM)
4: number of time points ([11]; 10 µM)

C=CC(=O)Nc1cc(Nc2nccc(-c3cn(C)c4ccccc34)n2)c(OC)cc1N(C)CCN(C)C [Osimertinib]
inactive: kinase-Nluc reporter destabilization hit call ([1]; 2.5 µM) 0 | kinase-Nluc reporter destabilization hit call ([2]; 2.5 µM) 0 | kinase-Nluc reporter destabilization hit call ([3]; 2.5 µM) 0 | kinase-Nluc reporter destabilization hit call ([4]; 2.5 µM) 0 | kinase-Nluc reporter destabilization hit call ([5]; 2.5 µM) 0 | kinase-Nluc reporter destabilization hit call ([6]; 2.5 µM) 0 | kinase-Nluc reporter destabilization hit call ([7]; 2.5 µM) 0 | kinase-Nluc reporter destabilization hit call ([8]; 2.5 µM) 0
0: number of time points ([9]; 2.5 µM) | number of time points ([10]; 2.5 µM) | number of time points ([11]; 2.5 µM)

Cc1[nH]c(/C=C2\C(=O)Nc3ccc(F)cc32)c(C)c1C(=O)NCCN1CCCC1 [Toceranib (phosphate)]
0: number of time points ([9]; 2 µM) | number of time points ([10]; 2 µM) | number of time points ([11]; 2 µM)
inactive: kinase-Nluc reporter destabilization hit call ([1]; 2 µM) 0 | kinase-Nluc reporter destabilization hit call ([2]; 2 µM) 0 | kinase-Nluc reporter destabilization hit call ([3]; 2 µM) 0 | kinase-Nluc reporter destabilization hit call ([4]; 2 µM) 0 | kinase-Nluc reporter destabilization hit call ([5]; 2 µM) 0 | kinase-Nluc reporter destabilization hit call ([6]; 2 µM) 0 | kinase-Nluc reporter destabilization hit call ([7]; 2 µM) 0 | kinase-Nluc reporter destabilization hit call ([8]; 2 µM) 0

COc1ccnc(C[S+]([O-])c2nc3cc(-n4cccc4)ccc3[nH]2)c1C (stereo not given) [Ilaprazole]
inactive: kinase-Nluc reporter destabilization hit call ([1]; 10 µM) 0 | kinase-Nluc reporter destabilization hit call ([2]; 10 µM) 0 | kinase-Nluc reporter destabilization hit call ([3]; 10 µM) 0 | kinase-Nluc reporter destabilization hit call ([4]; 10 µM) 0 | kinase-Nluc reporter destabilization hit call ([5]; 10 µM) 0 | kinase-Nluc reporter destabilization hit call ([6]; 10 µM) 0 | kinase-Nluc reporter destabilization hit call ([7]; 10 µM) 0 | kinase-Nluc reporter destabilization hit call ([8]; 10 µM) 0
0: number of time points ([9]; 10 µM) | number of time points ([10]; 10 µM) | number of time points ([11]; 10 µM)

C=CC(=O)N1CCN(c2ncnc3c(F)c(-c4c(O)cccc4F)c(Cl)cc23)CC1
0: number of time points ([9]; 2.5 µM) | number of time points ([9]; 10 µM) | number of time points ([10]; 2.5 µM) | number of time points ([10]; 10 µM) | number of time points ([11]; 2.5 µM) | number of time points ([11]; 10 µM)
inactive: kinase-Nluc reporter destabilization hit call ([1]; 2.5 µM) 0 | kinase-Nluc reporter destabilization hit call ([1]; 10 µM) 0 | kinase-Nluc reporter destabilization hit call ([2]; 2.5 µM) 0 | kinase-Nluc reporter destabilization hit call ([2]; 10 µM) 0 | kinase-Nluc reporter destabilization hit call ([3]; 2.5 µM) 0 | kinase-Nluc reporter destabilization hit call ([3]; 10 µM) 0 | kinase-Nluc reporter destabilization hit call ([4]; 2.5 µM) 0 | kinase-Nluc reporter destabilization hit call ([4]; 10 µM) 0 | kinase-Nluc reporter destabilization hit call ([5]; 2.5 µM) 0 | kinase-Nluc reporter destabilization hit call ([5]; 10 µM) 0 | kinase-Nluc reporter destabilization hit call ([6]; 2.5 µM) 0 | kinase-Nluc reporter destabilization hit call ([6]; 10 µM) 0 | kinase-Nluc reporter destabilization hit call ([7]; 2.5 µM) 0 | kinase-Nluc reporter destabilization hit call ([7]; 10 µM) 0 | kinase-Nluc reporter destabilization hit call ([8]; 2.5 µM) 0 | kinase-Nluc reporter destabilization hit call ([8]; 10 µM) 0

COc1cc(/C=C/C(=O)O)ccc1O [Ferulic acid]
inactive: kinase-Nluc reporter destabilization hit call ([1]; 10 µM) 0 | kinase-Nluc reporter destabilization hit call ([2]; 10 µM) 0 | kinase-Nluc reporter destabilization hit call ([3]; 10 µM) 0 | kinase-Nluc reporter destabilization hit call ([4]; 10 µM) 0 | kinase-Nluc reporter destabilization hit call ([5]; 10 µM) 0 | kinase-Nluc reporter destabilization hit call ([6]; 10 µM) 0 | kinase-Nluc reporter destabilization hit call ([7]; 10 µM) 0 | kinase-Nluc reporter destabilization hit call ([8]; 10 µM) 0
0: number of time points ([9]; 10 µM) | number of time points ([10]; 10 µM) | number of time points ([11]; 10 µM)

N=C(N)NC(=O)c1nc(Cl)c(N)nc1N [Amiloride (hydrochloride)]
0: number of time points ([9]; 10 µM) | number of time points ([10]; 10 µM) | number of time points ([11]; 10 µM)
inactive: kinase-Nluc reporter destabilization hit call ([1]; 10 µM) 0 | kinase-Nluc reporter destabilization hit call ([2]; 10 µM) 0 | kinase-Nluc reporter destabilization hit call ([3]; 10 µM) 0 | kinase-Nluc reporter destabilization hit call ([4]; 10 µM) 0 | kinase-Nluc reporter destabilization hit call ([5]; 10 µM) 0 | kinase-Nluc reporter destabilization hit call ([6]; 10 µM) 0 | kinase-Nluc reporter destabilization hit call ([7]; 10 µM) 0 | kinase-Nluc reporter destabilization hit call ([8]; 10 µM) 0

COc1ccc(S(=O)(=O)N(CCO)c2ccccc2CN(C)C/C=C/c2ccc(Cl)cc2)cc1 [KN-93 (phosphate)]
inactive: kinase-Nluc reporter destabilization hit call ([1]; 2.5 µM) 0 | kinase-Nluc reporter destabilization hit call ([2]; 2.5 µM) 0 | kinase-Nluc reporter destabilization hit call ([3]; 2.5 µM) 0 | kinase-Nluc reporter destabilization hit call ([4]; 2.5 µM) 0 | kinase-Nluc reporter destabilization hit call ([5]; 2.5 µM) 0 | kinase-Nluc reporter destabilization hit call ([6]; 2.5 µM) 0 | kinase-Nluc reporter destabilization hit call ([7]; 2.5 µM) 0 | kinase-Nluc reporter destabilization hit call ([8]; 2.5 µM) 0
0: number of time points ([9]; 2.5 µM) | number of time points ([10]; 2.5 µM) | number of time points ([11]; 2.5 µM)
